Test results reported in publication PMC2292753.
No constants are given. Whether binding was seen depends on the method and setting. Some entries that bind do so weakly or less than the wild type.

What was measured:
[1] = biological target: T1, Rad22 (the S. pombe Rad52 homolog) (S. pombe) (UniProt P36592); test: co-IP; coimmunoprecipitation in vitro of the ternary complex RPA-Rad22-Rhp51, formed in solution in the absence of ATP; unpublished data; both purified
T1 sequence: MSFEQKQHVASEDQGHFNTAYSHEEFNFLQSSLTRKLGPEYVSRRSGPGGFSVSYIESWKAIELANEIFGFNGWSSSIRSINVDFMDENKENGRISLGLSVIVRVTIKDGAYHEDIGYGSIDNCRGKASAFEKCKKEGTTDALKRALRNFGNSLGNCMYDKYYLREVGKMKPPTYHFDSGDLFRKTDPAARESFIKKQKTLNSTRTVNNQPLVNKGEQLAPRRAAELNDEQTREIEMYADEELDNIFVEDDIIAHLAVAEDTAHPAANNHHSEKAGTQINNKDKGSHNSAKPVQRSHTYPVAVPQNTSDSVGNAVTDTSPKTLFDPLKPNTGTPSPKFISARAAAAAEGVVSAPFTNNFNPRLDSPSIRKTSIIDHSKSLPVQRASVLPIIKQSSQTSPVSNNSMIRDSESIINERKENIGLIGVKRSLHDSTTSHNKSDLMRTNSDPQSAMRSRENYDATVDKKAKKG

[2] = biological target: T1, Rad22 (the S. pombe Rad52 homolog) (S. pombe); test: pull-down; css beads mixed with 5 uM Rhp51 and Rad22 (0.1 or 0.25 uM) at 37 °C for 5 min, then RPA (1 uM) added for 5 min; ATP; bead-bound proteins analysed by SDS-PAGE; both purified
[3] = biological target: T1, Rad22 (the S. pombe Rad52 homolog) (S. pombe); test: co-IP; immunoprecipitation assay in the absence of an adenine nucleotide; unpublished data; pairs Rhp51-Rad22 and Rad22-RPA; both purified

Measured: binding

B1: Rhp51 recombinase (the S. pombe Rad51 homolog) (enzyme, UniProt P36601 1-365)
chain: MADTEVEMQVSAADTNNNENGQAQSNYEYDVNVQDEEDEAAAGPMPLQMLEGNGITASDIKKIHEAGYYTVESIAYTPKRQLLLIKGISEAKADKLLGEASKLVPMGFTTATEYHIRRSELITITTGSKQLDTLLQGGVETGSITELFGEFRTGKSQICHTLAVTCQLPIDMGGGEGKCLYIDTEGTFRPVRLLAVADRYGLNGEEVLDNVAYARAYNADHQLELLQQAANMMSESRFSLLVVDSCTALYRTDFSGRGELSARQMHLARFMRTLQRLADEFGIAVVITNQVVAQVDGISFNPDPKKPIGGNILAHSSTTRLSLRKGRGEQRICKIYDSPCLPESEAIFAINSDGVGDPKEIIAPV
binds: all assays above
